Test results from patent US20020064538A1, “Method of controlling elasticity of skin and composition for the same” (priority 2000, published 2002).
At least one compound was matched to its structure with a doubt left.

Tested on: tropoelastin
Assay: Tropoelastin expression in retinoic acid treated aged skin, stained by tropoelastin antibody
Type: in vivo, human
Details: 0.1% retinoic acid applied 15 days by airtight method; forearm and upper-inner arm skin of elderly persons (>70 years); immunohistochemical stain

CC1=C(/C=C/C(C)=C/C=C/C(C)=C/C(=O)O)C(C)(C)CCC1 [retinoic acid]
length and number of oxytalan fibers: increased
tropoelastin expression: increased
